Reference: PubChem BioAssay AID2685 (National Center for Advancing Translational Sciences (NCATS), 2010)
This is one part of the list. These are further read-outs of the screen, such as a control signal, another cell line or another target. No call is given for them. Most of these compounds were active or inconclusive in the main read-out, so they are no random draw. The note in brackets gives the kind of curve behind each potency; many fits are weak.

Test: qHTS Assay for Lipid Storage Modulators in Drosophila S3 Cells;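 as to cell number change: cells counted by Cell Tracker Red CMTPX staining in the red channel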
Conditions: BODIPY lipid droplet fluorescence, 18-24 h; for cell number change: measured here: cell count max response, cells fed with added oleic acid
Summary of the method: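 Drosophila S3 cells loaded with oleic acid (400 uM, as added) and compounds at several concentrations; lipid droplets imaged by 488-nm laser-scanning cytometry, 500–530 nm intensity and object ratio to cell channel. Percent activity normalized to 20 uM Triacsin C.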

[1] = measured here: lipid fluorescence (Fed channel) AC50, cells fed with added oleic acid
[2] = measured here: cell number channel AC50, cells fed with added oleic acid

Structure (SMILES)	cell number change [%]	AC50 [1]	AC50 [2]
CCn1c2ccccc2c2c3ncc4cccn4c3ccc21	-26.5	29.1 µM [falling, single point]	
COc1ccc(S(=O)(=O)n2cccc2)c(OC)c1	-21.4		
Cc1ccc(NC(=O)CSc2nnc(-c3cccs3)o2)cc1S(=O)(=O)N(C)C	126	29.1 µM [rising, partial curve, poor fit]	29.1 µM [rising, single point]
CN1CCN(c2ccccc2NC(=O)c2ccc(OCc3ccccc3)cc2)CC1	148	16.4 µM [rising, partial curve]	
Cc1cccc(NC(=O)COc2ccccc2)c1	10.6	6.51 µM [falling, single point]	
CC(C)[C@H](NC(=O)N1c2ccccc2NC(=O)[C@@H]1C(C)C)C(=O)N[C@H](Cc1ccccc1)C(=O)O		29.1 µM [rising, single point]	
CC(=O)N/C(=C/c1cccnc1)C(=O)Nc1ccc(Cl)cc1	-20.8	0.13 µM [falling, full curve, poor fit]	
CCCCCCCCC(=O)NC(NC(=S)N1CCOCC1)C(Cl)(Cl)Cl (stereo not given)	-30.7	23.1 µM [falling, single point]	23.1 µM [falling, single point]
Cc1nn(-c2ccccc2)c2c1C(c1cccs1)C(C#N)=C(N)O2 (stereo not given)			6.51 µM [rising, single point]
Cc1ccccc1OCCC(=O)OCC(=O)Nc1c(C)nn(-c2ccccc2)c1C	-30.5	0.411 µM [rising, full curve]	0.259 µM [falling, full curve, poor fit]
O=C(NC(=S)NC1CCSC1=O)c1ccccc1 (stereo not given)	13.3		0.103 µM [falling, full curve, poor fit]
CCc1c(C)sc(NC(=O)c2ccco2)c1C(=O)N1CCCCC1	9.8	9.2 µM [falling, partial curve, poor fit]	
COc1ccc(C2C(C#N)=C(N)N(c3cccnc3)C3=C2C(=O)CCC3)cc1Cn1cc([N+](=O)[O-])cn1 (stereo not given)	-23.7	1.64 µM [falling, partial curve]	
O=C(CN1C(=O)c2ccccc2S1(=O)=O)N1CCN(Cc2ccc3c(c2)OCO3)CC1	6.86	23.1 µM [rising, partial curve, poor fit]	
COc1ccc(C(=O)NC(=S)N2CCN(C)CC2)cc1Br	-17.6	0.291 µM [rising, full curve, poor fit]	
O=C(NCc1ccccc1)c1cccnc1	4.92	0.651 µM [rising, single point]	
CCC(=O)OCC(=O)Nc1cc([N+](=O)[O-])ccc1OC	22.5		
Cc1cc(S(=O)(=O)N2CCCC2)ccc1OCC(=O)N1CCOCC1	-2.54		0.0731 µM [falling, full curve, poor fit]
Cc1cc(C)c[n+](CC(=O)c2ccc(NC(=O)c3ccccc3)cc2)c1	-44.7	23.1 µM [falling, partial curve, poor fit]	29.1 µM [falling, single point]

Some of the entries above, reformatted:
CCC(=O)OCC(=O)Nc1cc([N+](=O)[O-])ccc1OC
  cell number change [%]: 22.5
Cc1cc(S(=O)(=O)N2CCCC2)ccc1OCC(=O)N1CCOCC1
  cell number change [%]: -2.54
  AC50 [2]: 0.0731 µM [falling, full curve, poor fit]
Cc1cc(C)c[n+](CC(=O)c2ccc(NC(=O)c3ccccc3)cc2)c1
  cell number change [%]: -44.7
  AC50 [1]: 23.1 µM [falling, partial curve, poor fit]
  AC50 [2]: 29.1 µM [falling, single point]

Continuation.

Structure (SMILES)	cell number change [%]	AC50 [1]	AC50 [2]
COc1ccc(S(=O)(=O)N2CCOCC2)cc1NC(=O)C1COc2ccccc2O1 (stereo not given)	-22	29.1 µM [falling, single point]	
O=C(Nc1cc(C(F)(F)F)ccc1-n1cncn1)c1ccc(Br)cc1	0.414		
O=C(COC(=O)c1ccc2c(=O)n3c(nc2c1)CCC3)Nc1ccccc1F	20.9	1.64 µM [rising, full curve, poor fit]	
CCC(C)(C)c1ccc(OCC(=O)N(C)C)c(C(C)(C)CC)c1	-47.8		7.31 µM [falling, full curve, poor fit]
N#C[C@@H]1[C@@H]2C(=O)N(c3ccc4c(c3)OCCO4)C(=O)[C@@H]2C2c3ccccc3C=CN21 (stereo not given in full)	-20.5	16.4 µM [falling, single point]	
COc1ccc(-c2csc(/C(C#N)=C(\O)CSc3nccn3C)n2)cc1OC	-29.5		0.411 µM [falling, full curve, poor fit]
CN1CCCC(OC(=O)c2cc(F)c(F)c(F)c2F)C1 (stereo not given)	-30.9		20.6 µM [falling, single point]
O=C(N/N=C/c1cccn1-c1ccc([N+](=O)[O-])cc1)C(O)c1ccccc1 (stereo not given)	-23.5		1.16 µM [falling, full curve, poor fit]
CCCn1c(Nc2ccccc2)nc2ccccc21		0.651 µM [rising, full curve, poor fit]	
COc1ccc(N2CCN(C(=O)COc3ccccc3)CC2)cc1	-25.1		0.116 µM [falling, full curve, poor fit]
CCOC(=O)C(NC(=O)c1ccccc1Cl)(Nc1ccc(C)c(C)c1)C(F)(F)F (stereo not given)	-67.2	6.51 µM [falling, full curve]	10.3 µM [falling, partial curve]
COc1ccc(/C=C2\N=C3CCCCCN3C2=O)cc1	-44.3	29.1 µM [falling, single point]	23.1 µM [falling, single point]
CC(C)CN(CCCNC(=O)CN1N=C(c2ccc(Cl)cc2)CCC1=O)CC(C)C	29.8	6.51 µM [falling, single point]	3.66 µM [rising, full curve, poor fit]
CCOC(=O)N1CCN(C(=O)CSc2nnc(C3COc4ccccc4O3)o2)CC1 (stereo not given)	-0.184	0.326 µM [falling, partial curve, poor fit]	
O=C(CN1C(=O)C2CC=CCC2C1=O)Nc1ccc(S(=O)(=O)N2CCOCC2)cc1 (stereo not given)	-15		
CC(C)OCCCNC(=O)c1cc(Sc2ccc(F)cc2)nc2ccccc12	3.47	0.411 µM [rising, partial curve, poor fit]	
Cc1ccc(-n2c(=O)[nH]c3c(C(N)=O)nc(CC(C)C)nc32)cc1			6.51 µM [rising, single point]
O=Cc1ccc(N2CCCCCC2)cc1	5.02	6.51 µM [falling, single point]	
N#Cc1ccccc1COC(=O)CCCC1=NS(=O)(=O)c2ccccc2N1	-21.5	29.1 µM [falling, single point]	

Structure (SMILES)	cell number change [%]	AC50 [1]	AC50 [2]
O=C(CSc1cccc[n+]1[O-])Nc1ccccc1Oc1ccccc1			0.731 µM [falling, single point]
CCc1cccc(OCCCCNCCCOC)c1	0.247	0.116 µM [falling, full curve, poor fit]	
CO/N=C1\CCCc2c(C(=O)NN)sc(SC)c21	13.7	6.51 µM [rising, single point]	
O=C(CN(c1ccc2c(c1)OCCO2)S(=O)(=O)c1ccccc1)NCc1ccc(Cl)cc1	6.52	1.84 µM [rising, full curve, poor fit]	
O=C(CSCc1ccccc1)N1CCN(S(=O)(=O)c2cccc(F)c2)CC1	-14.2	0.651 µM [rising, full curve, poor fit]	
O=C(O)/C=C/C(=O)NCCc1ccc(Cl)cc1	5.25	0.082 µM [falling, full curve, poor fit]	
C=CCn1c(N)c(C(=O)NCC2CCCO2)c2nc3ccccc3nc21 (stereo not given)	-31.4	0.0517 µM [falling, full curve, poor fit]	20.6 µM [falling, partial curve, poor fit]
O=Nc1c(O)n(Cc2ccc(Cl)cc2Cl)c2ccccc12	-64.1	18.4 µM [falling, partial curve]	18.4 µM [falling, partial curve]
O=C(C1CCCO1)N1CCN(C(=S)Nc2ccccc2F)CC1 (stereo not given)		1.46 µM [falling, partial curve]	
O=C(c1ccc(-c2nnc(Nc3ccccc3)c3ccccc23)cc1)N1C[C@H]2C[C@H](C1)c1cccc(=O)n1C2	78.9	6.51 µM [rising, single point]	18.4 µM [rising, partial curve]
CN1CCC(N(C)C(=O)c2ccc(Cl)c(S(=O)(=O)N3CCCCC3)c2)CC1		29.1 µM [falling, single point]	
O=C(COC(=O)COc1cccc(F)c1)NCCC1=CCCCC1	-32.2	25.9 µM [falling, single point]	0.58 µM [falling, full curve]
CC(C)(C)C(=O)[C@@H]1[C@@H]2C(=O)N(Cc3ccccc3)C(=O)[C@@H]2[C@H]2c3ccccc3C=CN12			3.66 µM [rising, single point]
CCOC(=O)c1sc(=NC(=O)c2cccs2)n(C)c1C	1.44		
CN(C(=O)c1cccn(Cc2ccccc2)c1=O)c1ccccc1	-16.3	0.58 µM [rising, partial curve, poor fit]	2.59 µM [rising, single point]
COc1ccc(CCNc2ccc(S(=O)(=O)N3CCN(C)CC3)cc2[N+](=O)[O-])cc1			6.51 µM [rising, single point]
CC(C)(C)n1nc2c(c1NC(=O)c1ccco1)CS(=O)C2 (stereo not given)		29.1 µM [falling, partial curve]	
O=C(Nc1nc2cc3c(cc2s1)OCCO3)c1cccc(S(=O)(=O)N2CCOCC2)c1	-16.5		
CCOC(=O)/C(C#N)=C\C1=C(N2CCOCC2)CC(C)(C)OC1	-36.5		18.4 µM [falling, single point]
